From patent US20250221981A1, “MAT2A INHIBITOR AND/OR TSG101 INHIBITOR FOR USE IN ANTIVIRAL THERAPY” (CAMBRIDGE ENTERPRISE LIMITED, priority 2022, published 2025)
Some entries share one result that the patent states for a list of compounds.

System: RPTE/TERT1 cells
Test: Number of cells per well by DAPI analysis (cell viability / proliferation)
Type: cell-based, human
Conditions: at both concentrations (proliferative IC50 and double: PF-9366 10/20 μM, AG-270 257/514 nM); 48 hpi

CN(C)CCc1nnc2cc(-c3ccccc3)c3cc(Cl)ccc3n12 [PF-9366] was tested, and the “cells viable (number of cells normalised to DMSO treated cells)” value was “greater than 70%”.
